The list shows a part of the results.

The chains behind the UniProt entries cited, without tags or fusion partners. Where a name states a change or a piece, a line headed by the entry shows the natural chain unless it says otherwise.
UniProt Q4KWH8: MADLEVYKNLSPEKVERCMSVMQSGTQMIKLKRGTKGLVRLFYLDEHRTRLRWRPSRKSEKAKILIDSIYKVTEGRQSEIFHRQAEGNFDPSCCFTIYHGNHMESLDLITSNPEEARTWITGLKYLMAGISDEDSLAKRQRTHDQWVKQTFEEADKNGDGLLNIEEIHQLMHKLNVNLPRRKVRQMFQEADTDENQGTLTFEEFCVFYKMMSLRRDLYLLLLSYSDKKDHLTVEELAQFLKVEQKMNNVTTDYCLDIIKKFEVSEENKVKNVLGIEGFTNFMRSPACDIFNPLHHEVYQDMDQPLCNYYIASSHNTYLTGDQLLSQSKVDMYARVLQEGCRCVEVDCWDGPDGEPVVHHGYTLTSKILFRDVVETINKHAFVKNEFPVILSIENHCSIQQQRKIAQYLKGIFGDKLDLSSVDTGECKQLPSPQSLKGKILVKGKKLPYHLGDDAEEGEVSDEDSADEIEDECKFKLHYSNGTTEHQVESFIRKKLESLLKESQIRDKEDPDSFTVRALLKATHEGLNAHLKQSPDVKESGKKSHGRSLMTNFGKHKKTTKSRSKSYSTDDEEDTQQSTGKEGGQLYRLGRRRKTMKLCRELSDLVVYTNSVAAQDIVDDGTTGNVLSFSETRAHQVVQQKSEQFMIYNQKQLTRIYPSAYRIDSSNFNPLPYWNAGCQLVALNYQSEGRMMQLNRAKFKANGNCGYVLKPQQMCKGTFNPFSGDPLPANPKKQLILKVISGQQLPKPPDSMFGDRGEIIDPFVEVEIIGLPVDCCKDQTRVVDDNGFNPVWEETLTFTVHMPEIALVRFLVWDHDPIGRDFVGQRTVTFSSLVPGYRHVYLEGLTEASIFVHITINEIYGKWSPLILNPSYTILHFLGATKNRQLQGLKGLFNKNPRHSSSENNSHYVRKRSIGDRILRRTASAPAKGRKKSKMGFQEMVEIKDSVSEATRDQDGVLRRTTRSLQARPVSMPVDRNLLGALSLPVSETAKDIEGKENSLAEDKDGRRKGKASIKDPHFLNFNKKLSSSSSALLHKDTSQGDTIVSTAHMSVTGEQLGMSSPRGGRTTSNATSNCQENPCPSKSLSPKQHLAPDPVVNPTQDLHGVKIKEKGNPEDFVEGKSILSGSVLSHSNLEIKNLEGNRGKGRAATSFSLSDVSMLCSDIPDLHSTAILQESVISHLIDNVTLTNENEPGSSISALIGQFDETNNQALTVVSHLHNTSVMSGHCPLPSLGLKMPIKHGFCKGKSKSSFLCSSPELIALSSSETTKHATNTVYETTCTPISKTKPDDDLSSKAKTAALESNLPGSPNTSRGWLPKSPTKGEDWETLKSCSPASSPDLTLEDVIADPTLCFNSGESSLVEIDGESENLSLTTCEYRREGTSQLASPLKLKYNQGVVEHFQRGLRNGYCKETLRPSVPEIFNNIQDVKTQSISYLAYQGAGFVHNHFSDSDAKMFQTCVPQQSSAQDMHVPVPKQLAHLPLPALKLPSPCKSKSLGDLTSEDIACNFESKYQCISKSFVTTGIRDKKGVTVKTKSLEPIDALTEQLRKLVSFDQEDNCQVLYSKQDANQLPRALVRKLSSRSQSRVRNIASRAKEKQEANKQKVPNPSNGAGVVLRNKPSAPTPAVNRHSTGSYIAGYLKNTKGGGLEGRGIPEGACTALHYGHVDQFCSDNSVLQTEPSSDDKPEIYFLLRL
UniProt Q99471, whole entry, looked up: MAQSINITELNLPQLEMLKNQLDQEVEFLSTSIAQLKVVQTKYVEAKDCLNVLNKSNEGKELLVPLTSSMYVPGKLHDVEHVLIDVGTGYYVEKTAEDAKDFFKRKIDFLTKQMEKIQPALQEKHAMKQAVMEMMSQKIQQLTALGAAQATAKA
UniProt P08237: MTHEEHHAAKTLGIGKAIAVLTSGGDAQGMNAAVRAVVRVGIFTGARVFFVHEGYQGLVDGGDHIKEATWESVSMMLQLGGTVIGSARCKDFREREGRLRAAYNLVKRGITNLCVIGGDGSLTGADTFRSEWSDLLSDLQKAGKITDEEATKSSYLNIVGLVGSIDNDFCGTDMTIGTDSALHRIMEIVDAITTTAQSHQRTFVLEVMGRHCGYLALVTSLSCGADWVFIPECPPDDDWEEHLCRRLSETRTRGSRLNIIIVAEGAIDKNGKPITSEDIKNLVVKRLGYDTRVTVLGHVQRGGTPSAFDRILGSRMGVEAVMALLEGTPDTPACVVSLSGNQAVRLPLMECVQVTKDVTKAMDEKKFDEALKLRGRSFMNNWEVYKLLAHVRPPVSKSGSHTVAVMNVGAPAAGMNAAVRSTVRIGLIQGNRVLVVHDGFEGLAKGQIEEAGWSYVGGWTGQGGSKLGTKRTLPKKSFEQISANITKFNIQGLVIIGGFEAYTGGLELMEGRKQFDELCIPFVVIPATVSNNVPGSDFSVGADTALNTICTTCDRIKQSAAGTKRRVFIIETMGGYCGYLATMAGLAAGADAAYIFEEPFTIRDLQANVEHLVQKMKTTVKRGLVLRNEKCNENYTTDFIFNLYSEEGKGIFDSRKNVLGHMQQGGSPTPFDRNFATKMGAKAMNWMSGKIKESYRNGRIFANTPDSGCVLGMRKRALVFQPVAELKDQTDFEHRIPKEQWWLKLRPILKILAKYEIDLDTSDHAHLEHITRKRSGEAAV
UniProt O95394: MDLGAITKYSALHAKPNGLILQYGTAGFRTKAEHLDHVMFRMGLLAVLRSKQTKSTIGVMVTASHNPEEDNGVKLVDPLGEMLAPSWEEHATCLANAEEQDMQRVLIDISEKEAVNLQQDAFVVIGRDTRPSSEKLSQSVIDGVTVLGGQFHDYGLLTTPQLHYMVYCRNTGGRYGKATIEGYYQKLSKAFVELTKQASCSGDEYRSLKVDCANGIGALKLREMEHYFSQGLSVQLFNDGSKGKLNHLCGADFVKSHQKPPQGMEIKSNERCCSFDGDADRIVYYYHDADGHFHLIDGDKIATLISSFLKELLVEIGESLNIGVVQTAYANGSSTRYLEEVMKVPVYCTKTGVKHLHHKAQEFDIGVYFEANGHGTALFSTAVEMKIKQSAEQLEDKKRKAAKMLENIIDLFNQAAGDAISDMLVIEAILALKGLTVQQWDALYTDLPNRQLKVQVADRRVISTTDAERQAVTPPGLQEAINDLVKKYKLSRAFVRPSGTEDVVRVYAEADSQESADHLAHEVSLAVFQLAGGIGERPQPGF
UniProt Q16513: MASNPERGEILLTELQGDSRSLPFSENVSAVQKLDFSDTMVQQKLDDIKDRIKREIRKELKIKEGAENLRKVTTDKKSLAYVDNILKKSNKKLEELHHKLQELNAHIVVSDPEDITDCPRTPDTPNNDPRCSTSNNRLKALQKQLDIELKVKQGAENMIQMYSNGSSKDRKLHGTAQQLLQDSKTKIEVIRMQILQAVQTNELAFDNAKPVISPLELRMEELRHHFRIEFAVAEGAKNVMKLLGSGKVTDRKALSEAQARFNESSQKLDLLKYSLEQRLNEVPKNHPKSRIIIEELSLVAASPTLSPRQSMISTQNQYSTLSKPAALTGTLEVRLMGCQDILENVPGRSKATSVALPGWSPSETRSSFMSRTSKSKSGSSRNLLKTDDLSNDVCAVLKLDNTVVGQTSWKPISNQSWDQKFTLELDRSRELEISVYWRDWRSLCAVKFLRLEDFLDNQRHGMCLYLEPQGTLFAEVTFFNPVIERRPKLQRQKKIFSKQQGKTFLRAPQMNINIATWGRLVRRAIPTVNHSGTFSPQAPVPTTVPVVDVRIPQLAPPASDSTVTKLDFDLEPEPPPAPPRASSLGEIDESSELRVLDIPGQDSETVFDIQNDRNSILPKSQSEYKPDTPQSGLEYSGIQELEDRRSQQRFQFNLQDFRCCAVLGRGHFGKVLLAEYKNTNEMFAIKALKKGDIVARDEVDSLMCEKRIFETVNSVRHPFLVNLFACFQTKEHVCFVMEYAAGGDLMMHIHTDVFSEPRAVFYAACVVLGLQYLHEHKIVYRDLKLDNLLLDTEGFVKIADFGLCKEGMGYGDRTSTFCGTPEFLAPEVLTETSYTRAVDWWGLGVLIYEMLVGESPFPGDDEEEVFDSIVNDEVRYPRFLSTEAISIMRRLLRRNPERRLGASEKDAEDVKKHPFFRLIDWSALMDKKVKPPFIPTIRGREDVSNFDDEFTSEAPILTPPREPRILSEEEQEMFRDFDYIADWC
UniProt Q8IV08: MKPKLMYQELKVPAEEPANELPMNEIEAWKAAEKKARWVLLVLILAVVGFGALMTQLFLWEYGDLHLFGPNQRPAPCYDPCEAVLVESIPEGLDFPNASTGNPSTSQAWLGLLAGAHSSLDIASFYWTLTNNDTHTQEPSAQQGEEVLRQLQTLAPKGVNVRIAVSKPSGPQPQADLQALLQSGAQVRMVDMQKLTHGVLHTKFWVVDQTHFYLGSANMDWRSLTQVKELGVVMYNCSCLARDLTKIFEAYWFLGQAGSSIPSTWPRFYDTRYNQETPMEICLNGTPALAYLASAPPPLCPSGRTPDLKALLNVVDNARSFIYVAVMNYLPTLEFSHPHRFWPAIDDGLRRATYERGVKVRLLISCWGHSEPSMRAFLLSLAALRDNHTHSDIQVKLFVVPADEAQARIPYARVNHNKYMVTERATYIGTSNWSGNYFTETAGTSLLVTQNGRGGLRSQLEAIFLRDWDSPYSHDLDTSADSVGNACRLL
UniProt Q96S52: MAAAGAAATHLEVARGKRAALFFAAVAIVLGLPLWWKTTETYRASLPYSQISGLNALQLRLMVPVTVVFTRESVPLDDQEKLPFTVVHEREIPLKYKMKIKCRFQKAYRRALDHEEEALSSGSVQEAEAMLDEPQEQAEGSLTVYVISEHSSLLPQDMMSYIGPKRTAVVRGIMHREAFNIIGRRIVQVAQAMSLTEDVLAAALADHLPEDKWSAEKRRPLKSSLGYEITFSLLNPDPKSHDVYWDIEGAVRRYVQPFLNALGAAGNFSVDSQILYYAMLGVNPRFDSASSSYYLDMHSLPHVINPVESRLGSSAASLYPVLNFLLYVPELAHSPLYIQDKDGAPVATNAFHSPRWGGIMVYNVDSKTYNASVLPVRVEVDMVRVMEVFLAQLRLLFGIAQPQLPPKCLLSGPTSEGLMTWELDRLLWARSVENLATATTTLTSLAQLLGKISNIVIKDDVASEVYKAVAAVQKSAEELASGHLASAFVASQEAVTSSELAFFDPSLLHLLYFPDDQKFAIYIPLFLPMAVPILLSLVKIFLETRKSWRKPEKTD
UniProt Q969N2: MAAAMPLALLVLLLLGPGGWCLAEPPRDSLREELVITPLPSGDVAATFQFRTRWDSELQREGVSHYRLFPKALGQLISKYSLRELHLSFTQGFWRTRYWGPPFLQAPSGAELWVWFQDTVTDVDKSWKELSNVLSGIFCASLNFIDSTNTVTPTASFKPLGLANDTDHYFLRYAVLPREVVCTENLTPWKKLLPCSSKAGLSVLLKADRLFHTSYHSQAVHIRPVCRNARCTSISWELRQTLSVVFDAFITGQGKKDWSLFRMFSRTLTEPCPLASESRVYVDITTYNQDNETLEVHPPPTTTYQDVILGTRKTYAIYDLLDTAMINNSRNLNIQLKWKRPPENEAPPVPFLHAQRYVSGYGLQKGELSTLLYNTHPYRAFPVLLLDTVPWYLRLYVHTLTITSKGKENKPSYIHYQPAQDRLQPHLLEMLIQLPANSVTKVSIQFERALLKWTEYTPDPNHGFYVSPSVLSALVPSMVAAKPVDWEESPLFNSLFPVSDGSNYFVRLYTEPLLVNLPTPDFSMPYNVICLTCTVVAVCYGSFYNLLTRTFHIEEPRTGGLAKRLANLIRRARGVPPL
UniProt Q9UBF8: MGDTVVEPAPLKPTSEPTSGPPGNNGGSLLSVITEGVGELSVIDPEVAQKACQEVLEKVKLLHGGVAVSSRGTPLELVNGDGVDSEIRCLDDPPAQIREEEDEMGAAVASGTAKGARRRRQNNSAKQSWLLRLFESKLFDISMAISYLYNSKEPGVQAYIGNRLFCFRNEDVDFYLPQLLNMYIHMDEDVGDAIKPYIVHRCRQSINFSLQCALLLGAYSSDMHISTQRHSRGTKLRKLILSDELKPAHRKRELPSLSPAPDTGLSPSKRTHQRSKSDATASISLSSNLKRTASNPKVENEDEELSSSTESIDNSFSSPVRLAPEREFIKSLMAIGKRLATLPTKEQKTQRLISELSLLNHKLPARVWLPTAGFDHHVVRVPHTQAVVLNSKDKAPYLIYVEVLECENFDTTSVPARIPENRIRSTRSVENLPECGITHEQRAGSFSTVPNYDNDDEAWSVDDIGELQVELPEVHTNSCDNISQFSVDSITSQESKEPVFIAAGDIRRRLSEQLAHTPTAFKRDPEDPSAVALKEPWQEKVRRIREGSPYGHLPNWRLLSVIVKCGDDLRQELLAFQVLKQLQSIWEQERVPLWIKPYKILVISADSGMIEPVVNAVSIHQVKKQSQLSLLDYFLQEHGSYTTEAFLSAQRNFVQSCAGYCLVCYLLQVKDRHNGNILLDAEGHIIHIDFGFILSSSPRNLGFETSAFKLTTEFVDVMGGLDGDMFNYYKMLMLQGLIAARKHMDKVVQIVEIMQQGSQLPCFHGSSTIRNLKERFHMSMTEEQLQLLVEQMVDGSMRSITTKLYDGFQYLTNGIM

Experimental findings from the supplement of paper PMC10849652 are described below.

Holding throughout (test): log2 fold change, soluble protein after heating vs DMSO (PISA); higher = thermal stabilisation; K562 cells, 10 uM, 30 min; active = over 0.2 and 3.5 SD of the protein, either way, in both replicates (recomputed)
Compound in assay [1]: C1=CC=C(C=C1)[C@H](COC2=CC3=C(C=C2)NC(=O)N3)NC(=O)C4=CC=CN(C4=O)CC5=CC(=C(C=C5)F)F
In a few lines:
(§1)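 Soluble protein was defined as the supernatant after 21,000xg for 90 min. It came from K562 cells at 2×10^6 cells/mL given 10 μM compound for 30 min, heated in aliquots for 3 min across 48°C-58°C, pooled, and extracted in PBS with 0.5% NP-40 at 4°C, and was quantified by TMTpro 16plex LC-MS/MS with equalised channel sums. Thermal stability against control samples, from duplicates, is reported as log2 fold change.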

Compound in assay [2]: CC1=C(SC2=C1C(=N[C@H](C3=NN=C(N32)C)CC(=O)N)C4=CC=C(C=C4)Cl)C
The procedure, abridged: as §1

Compound in assay [3]: CC1=C2C(=CC=C1)N=C(N(C2=O)C3=CC=CC=C3C)CN4C=NC5=C(N=CN=C54)N
The procedure, abridged:
as §1

Compound in assay [4]: Cc1sc2c(c1C)C(c1ccc(Cl)cc1)=N[C@@H](CC(=O)OC(C)(C)C)c1nnc(C)n1-2
The procedure, abridged:
as §1

Compound in assay [5]: c1ccc([C@@H]2C[C@H]2NC2CCNCC2)cc1
In a few lines:
as §1

Regarding PLCH1 (UniProt Q4KWH8), the log2 fold change in assay [1] is inactive: -0.066; in assay [2], inactive: 0.1; in assay [3] it was inactive: 0.143; in assay [4] it was inactive: 0.017; in assay [5] it was inactive: -0.001.

Regarding PFDN5 (UniProt Q99471), the log2 fold change is inactive: -0.042 in assay [1]; inactive: 0.089 in assay [2]; inactive: -0.043 in assay [3]; inactive: -0.093 in assay [4]; inactive: -0.048 in assay [5].

For the target PFKM isoform 3 (UniProt P08237), the log2 fold change in assay [1] is inactive: 0.024; in assay [2] it was inactive: 0.034; in assay [3], inactive: -0.003; in assay [4] it was inactive: 0.013; in assay [5] it was inactive: 0.044.

Regarding PGM3 isoform 4 (UniProt O95394), the log2 fold change in assay [1] was inactive: -0.082; in assay [2], inactive: 0.039; in assay [3] it was inactive: 0.066; in assay [4], inactive: 0.012; in assay [5], inactive: -0.088.

With PKN2 (UniProt Q16513), the log2 fold change in assay [1] was inactive: -0.075; in assay [2] it was inactive: 0.103; in assay [3] it was inactive: 0.066; in assay [4], inactive: 0.029; in assay [5], inactive: 0.044.

For PLD3 (UniProt Q8IV08), the log2 fold change is inactive: 0.022 in assay [1]; inactive: 0.058 in assay [2]; inactive: 0.033 in assay [3]; inactive: 0.017 in assay [4]; inactive: 0.009 in assay [5].

PIGS (UniProt Q96S52): the log2 fold change in assay [1] is inactive: 0.06; in assay [2], inactive: 0.017; in assay [3], inactive: 0.028; in assay [4] it was inactive: 0.003; in assay [5] it was inactive: -0.007.

Take PIGT (UniProt Q969N2): the log2 fold change was inactive: 0.022 in assay [1]; inactive: 0.142 in assay [2]; inactive: -0.013 in assay [3]; active: 0.276 in assay [4]; inactive: -0.021 in assay [5].

For the target PI4KB (UniProt Q9UBF8), the log2 fold change in assay [1] is inactive: -0.009; in assay [2] it was inactive: 0.06; in assay [3], inactive: 0.066; in assay [4] it was inactive: -0.007; in assay [5] it was inactive: -0.023.
